Experimental data: the supplement of paper PMC10849652
This is one part of the list.

Sequences of proteins named here, by UniProt entry; tags and fusion partners are left off. A change or cut given only in a name is not applied to a line headed by its entry.
UniProt Q9Y294, whole entry, looked up: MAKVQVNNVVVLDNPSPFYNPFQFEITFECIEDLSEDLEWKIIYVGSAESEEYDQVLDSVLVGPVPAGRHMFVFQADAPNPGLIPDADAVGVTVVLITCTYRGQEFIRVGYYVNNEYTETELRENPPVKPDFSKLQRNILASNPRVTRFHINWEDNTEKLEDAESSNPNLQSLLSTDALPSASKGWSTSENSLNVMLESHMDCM
UniProt O75143: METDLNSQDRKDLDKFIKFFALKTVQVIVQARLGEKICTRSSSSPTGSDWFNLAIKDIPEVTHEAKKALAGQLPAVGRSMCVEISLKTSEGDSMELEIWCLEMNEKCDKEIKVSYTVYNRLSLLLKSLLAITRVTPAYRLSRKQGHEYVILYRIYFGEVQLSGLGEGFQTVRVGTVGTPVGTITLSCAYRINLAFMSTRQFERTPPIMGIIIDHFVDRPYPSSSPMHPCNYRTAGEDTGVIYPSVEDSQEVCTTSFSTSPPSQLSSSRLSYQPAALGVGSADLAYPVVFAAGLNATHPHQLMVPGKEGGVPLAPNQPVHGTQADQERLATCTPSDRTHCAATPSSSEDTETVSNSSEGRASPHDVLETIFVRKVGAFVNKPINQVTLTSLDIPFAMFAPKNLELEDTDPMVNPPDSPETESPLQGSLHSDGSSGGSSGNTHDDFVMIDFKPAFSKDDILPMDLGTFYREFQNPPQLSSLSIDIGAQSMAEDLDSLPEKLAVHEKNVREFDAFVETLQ
UniProt P56211: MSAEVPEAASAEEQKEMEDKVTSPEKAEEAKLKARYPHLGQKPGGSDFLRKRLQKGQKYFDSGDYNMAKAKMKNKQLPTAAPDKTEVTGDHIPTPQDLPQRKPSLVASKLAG
UniProt Q16864, whole entry, looked up: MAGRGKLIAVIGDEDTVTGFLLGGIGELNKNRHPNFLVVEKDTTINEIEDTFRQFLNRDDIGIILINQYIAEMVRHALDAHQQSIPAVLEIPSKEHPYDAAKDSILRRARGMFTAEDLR
UniProt P56134: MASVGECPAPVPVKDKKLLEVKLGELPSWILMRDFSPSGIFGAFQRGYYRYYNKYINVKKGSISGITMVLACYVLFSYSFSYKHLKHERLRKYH
UniProt P56381: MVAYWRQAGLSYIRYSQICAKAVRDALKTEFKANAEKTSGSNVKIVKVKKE
UniProt Q04656: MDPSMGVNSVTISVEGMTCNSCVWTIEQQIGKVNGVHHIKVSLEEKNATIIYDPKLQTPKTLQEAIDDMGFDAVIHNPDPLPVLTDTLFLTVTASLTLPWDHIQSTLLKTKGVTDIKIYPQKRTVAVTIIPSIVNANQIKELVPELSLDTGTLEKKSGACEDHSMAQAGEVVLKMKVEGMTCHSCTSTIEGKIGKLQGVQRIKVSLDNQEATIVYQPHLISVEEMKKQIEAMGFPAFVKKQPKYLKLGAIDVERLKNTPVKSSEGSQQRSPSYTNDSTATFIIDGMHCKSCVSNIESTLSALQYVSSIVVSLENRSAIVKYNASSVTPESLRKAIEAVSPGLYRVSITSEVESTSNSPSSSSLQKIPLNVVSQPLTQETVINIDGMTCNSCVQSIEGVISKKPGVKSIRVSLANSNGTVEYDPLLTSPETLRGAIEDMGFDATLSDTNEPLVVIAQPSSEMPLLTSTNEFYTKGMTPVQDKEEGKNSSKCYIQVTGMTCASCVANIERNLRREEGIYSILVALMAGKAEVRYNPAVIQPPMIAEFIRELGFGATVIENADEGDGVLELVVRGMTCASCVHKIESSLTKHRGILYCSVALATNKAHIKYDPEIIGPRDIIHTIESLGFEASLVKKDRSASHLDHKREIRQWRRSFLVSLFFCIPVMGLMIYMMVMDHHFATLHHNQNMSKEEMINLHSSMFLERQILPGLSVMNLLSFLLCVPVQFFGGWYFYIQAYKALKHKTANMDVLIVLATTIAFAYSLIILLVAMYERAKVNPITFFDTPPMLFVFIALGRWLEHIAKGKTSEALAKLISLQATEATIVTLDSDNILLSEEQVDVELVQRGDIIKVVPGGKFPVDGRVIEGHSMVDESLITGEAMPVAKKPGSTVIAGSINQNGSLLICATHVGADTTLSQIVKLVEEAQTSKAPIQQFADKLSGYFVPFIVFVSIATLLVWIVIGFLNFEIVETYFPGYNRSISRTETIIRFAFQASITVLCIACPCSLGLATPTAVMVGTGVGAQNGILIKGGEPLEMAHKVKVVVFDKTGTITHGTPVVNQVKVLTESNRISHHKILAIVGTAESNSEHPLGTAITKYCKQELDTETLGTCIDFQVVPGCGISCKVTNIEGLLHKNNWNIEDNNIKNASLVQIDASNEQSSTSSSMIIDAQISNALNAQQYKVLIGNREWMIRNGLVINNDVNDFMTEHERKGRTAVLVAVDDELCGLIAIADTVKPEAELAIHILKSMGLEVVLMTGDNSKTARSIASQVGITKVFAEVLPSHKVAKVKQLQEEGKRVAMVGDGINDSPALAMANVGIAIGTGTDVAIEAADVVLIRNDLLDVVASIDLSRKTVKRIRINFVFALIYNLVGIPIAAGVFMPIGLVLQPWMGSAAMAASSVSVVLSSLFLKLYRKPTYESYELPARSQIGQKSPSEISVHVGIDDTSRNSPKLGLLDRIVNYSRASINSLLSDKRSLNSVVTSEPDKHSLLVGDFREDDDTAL
UniProt Q12797: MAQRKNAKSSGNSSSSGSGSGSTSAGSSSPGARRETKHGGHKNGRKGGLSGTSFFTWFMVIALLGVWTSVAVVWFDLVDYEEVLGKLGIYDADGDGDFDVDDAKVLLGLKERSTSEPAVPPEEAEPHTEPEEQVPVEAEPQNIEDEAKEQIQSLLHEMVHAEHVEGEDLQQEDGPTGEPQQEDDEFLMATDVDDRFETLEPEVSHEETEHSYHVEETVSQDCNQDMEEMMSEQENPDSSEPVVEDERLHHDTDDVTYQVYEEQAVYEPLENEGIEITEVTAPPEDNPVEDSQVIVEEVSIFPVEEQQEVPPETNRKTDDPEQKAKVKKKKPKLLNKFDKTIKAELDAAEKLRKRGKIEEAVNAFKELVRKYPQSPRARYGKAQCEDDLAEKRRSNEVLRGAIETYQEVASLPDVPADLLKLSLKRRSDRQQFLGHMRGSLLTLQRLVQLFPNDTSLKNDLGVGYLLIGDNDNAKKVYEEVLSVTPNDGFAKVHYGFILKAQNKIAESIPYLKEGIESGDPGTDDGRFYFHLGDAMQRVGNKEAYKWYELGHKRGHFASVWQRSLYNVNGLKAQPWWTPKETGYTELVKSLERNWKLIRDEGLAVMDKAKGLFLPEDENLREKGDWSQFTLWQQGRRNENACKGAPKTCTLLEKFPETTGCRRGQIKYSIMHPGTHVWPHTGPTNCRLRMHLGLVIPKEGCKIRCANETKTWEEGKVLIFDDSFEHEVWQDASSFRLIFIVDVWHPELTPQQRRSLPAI
UniProt P56378: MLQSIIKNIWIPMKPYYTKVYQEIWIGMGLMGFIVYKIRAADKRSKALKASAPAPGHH
UniProt Q9NXU5: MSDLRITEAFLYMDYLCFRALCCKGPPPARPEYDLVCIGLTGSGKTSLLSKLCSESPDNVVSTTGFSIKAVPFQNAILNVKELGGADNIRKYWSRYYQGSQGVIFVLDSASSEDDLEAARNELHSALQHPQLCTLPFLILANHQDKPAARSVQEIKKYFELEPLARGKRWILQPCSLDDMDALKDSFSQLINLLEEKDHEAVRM
UniProt Q96BY7: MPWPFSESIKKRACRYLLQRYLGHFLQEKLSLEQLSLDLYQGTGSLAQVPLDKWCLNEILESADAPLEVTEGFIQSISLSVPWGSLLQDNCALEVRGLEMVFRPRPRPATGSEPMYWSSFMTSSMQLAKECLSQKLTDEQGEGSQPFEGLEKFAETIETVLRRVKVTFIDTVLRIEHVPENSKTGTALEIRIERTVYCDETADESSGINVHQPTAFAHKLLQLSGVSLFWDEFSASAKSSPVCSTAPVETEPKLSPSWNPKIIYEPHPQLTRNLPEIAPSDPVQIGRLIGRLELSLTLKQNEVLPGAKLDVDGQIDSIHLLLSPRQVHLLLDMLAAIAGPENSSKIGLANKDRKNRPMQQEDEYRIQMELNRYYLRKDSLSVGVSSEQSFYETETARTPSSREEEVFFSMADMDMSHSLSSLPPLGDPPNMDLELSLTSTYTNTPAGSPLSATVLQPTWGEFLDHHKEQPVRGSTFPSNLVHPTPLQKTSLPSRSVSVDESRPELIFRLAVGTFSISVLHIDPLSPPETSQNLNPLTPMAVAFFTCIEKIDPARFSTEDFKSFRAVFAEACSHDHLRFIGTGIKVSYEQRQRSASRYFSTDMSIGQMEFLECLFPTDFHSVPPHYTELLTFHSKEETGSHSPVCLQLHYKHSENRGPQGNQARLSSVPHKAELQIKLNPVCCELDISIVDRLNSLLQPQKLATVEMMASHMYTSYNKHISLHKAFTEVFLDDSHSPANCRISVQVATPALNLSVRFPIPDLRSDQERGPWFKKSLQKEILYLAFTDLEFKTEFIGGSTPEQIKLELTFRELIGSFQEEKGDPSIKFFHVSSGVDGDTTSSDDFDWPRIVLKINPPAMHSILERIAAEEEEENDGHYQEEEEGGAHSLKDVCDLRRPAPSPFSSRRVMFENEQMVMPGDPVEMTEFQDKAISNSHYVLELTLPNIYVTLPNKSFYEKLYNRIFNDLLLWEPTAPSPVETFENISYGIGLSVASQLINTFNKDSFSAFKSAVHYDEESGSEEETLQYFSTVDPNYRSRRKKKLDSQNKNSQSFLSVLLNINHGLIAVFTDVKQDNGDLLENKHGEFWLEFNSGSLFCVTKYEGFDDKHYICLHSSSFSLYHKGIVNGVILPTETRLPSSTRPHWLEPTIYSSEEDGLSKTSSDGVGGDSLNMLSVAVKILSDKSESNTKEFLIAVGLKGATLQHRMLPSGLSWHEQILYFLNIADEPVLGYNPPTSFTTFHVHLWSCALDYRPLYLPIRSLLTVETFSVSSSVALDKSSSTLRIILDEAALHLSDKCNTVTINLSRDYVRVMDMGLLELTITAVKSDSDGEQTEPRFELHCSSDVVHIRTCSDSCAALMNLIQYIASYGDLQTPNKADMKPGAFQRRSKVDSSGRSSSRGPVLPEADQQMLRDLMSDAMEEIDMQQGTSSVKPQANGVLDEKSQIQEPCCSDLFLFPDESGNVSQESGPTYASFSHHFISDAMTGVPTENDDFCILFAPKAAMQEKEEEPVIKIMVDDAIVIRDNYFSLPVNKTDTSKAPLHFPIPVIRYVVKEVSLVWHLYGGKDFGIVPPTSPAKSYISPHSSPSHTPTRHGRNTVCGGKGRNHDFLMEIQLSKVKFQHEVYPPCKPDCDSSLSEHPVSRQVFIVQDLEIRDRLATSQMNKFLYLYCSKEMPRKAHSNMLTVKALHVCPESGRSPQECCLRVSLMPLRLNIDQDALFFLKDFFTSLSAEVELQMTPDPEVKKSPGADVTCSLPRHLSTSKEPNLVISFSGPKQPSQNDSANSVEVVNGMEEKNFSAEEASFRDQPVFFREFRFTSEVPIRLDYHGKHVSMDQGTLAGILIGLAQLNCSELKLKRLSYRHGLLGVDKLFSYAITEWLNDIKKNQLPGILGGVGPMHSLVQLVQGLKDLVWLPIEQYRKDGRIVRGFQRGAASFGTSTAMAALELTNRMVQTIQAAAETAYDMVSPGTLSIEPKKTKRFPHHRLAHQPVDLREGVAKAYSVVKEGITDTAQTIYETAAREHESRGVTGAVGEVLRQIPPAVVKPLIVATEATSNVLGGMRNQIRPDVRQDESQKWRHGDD
UniProt P36404: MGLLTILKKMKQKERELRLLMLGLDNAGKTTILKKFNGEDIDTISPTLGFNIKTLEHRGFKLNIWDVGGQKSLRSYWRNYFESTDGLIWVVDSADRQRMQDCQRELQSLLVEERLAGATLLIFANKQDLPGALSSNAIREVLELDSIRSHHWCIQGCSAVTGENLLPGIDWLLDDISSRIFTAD
UniProt P21283, whole entry, looked up: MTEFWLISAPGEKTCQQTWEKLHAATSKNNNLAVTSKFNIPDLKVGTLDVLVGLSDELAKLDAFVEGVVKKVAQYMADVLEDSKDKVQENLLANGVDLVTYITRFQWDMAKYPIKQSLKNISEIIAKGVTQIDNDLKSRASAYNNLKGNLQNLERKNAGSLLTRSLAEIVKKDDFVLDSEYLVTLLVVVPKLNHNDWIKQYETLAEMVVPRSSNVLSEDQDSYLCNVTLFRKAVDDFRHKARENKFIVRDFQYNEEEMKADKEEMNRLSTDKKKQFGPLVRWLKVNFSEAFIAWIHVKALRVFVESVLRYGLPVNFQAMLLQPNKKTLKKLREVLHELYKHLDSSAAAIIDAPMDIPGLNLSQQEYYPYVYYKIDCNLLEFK
UniProt P14415, whole entry, looked up: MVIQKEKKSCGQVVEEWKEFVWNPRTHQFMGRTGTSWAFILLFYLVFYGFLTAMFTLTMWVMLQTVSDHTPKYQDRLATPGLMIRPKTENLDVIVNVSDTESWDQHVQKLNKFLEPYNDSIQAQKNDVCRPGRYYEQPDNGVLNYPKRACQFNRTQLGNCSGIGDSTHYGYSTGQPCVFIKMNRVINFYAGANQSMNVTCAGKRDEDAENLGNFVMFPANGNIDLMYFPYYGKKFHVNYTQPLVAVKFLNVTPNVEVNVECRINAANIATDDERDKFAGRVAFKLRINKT

Compound: O=C1NC(=O)C(c2cnc3ccccn23)=C1c1cn2c3c(cc(F)cc13)CN(C(=O)N1CCCCC1)CC2
Assay: log2 fold change, soluble protein after heating vs DMSO (PISA); higher = thermal stabilisation; K562 cells, 10 uM, 30 min; active = over 0.2 and 3.5 SD of the protein, either way, in both replicates (recomputed)
Method in brief: (§1)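 For each measurement, 10 μM compound was applied for 30 min to K562 cells at 2×10^6 cells/mL. Aliquots were heated for 3 min across 48°C-58°C, pooled, and extracted in PBS with 0.5% NP-40 at 4°C; the supernatant after 21,000xg for 90 min was soluble protein. This was quantified by TMTpro 16plex LC-MS/MS with channel sums equalised, and thermal stability was reported relative to control samples from duplicates, on a log2 fold-change scale.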

log2 fold change, inactive:
ATP11C (UniProt Q8NB49) -0.019
ASF1A (UniProt Q9Y294) -0.133
ATM (UniProt Q13315) -0.017
ARMC8 (UniProt Q8IUR7) 0.026
ATG13 isoform 5 (UniProt O75143) -0.056
ATIC (UniProt P31939) -0.066
ARPP19 (UniProt P56211) 0.026
ATG4B isoform 2 (UniProt Q9Y4P1) -0.093
ASH2L (UniProt Q9UBL3) -0.064
ASS1 (UniProt P00966) -0.013
ARL13B (UniProt Q3SXY8) -0.127
ASAH1 isoform 2 (UniProt Q13510) -0.032
ATP6V1F isoform 2 (UniProt Q16864) -0.073
ATP5MF (UniProt P56134) -0.015
ATP5F1E (UniProt P56381) -0.025
ATP7A isoform 3 (UniProt Q04656) -0.063

Compound: c1cc(OCCN2CCCCC2)cc(-c2n[nH]c3ccc(-c4nnc[nH]4)cc23)c1
Assay: as above
Method in brief: as §1

log2 fold change, inactive:
ATG9A (UniProt Q7Z3C6) -0.013
ASPH (UniProt Q12797) -0.036
ATG16L1 (UniProt Q676U5) -0.01
ARPC1B (UniProt O15143) 0.022
ARPC4 isoform 3 (UniProt P59998) -0.052
ATP7B (UniProt P35670) -0.023
ARMT1 (UniProt Q9H993) -0.094
ATOX1 (UniProt O00244) -0.004
ATP5MPL (UniProt P56378) -0.025
ATG2A isoform 3 (UniProt Q2TAZ0) 0.029
ARL15 (UniProt Q9NXU5) -0.013
ATP5F1A (UniProt P25705) -0.014
ATG2B (UniProt Q96BY7) 0.021
ARL2 (UniProt P36404) -0.03
ATP6V1C1 (UniProt P21283) -0.103
ATP2A2 (UniProt P16615) -0.039
ATP6V1B2 (UniProt P21281) -0.04
ATP6V0A1 isoform 3 (UniProt Q93050) -0.112
ARPC5 (UniProt O15511) 0.007
ATP1B2 (UniProt P14415) 0.044
ASNA1 (UniProt O43681) -0.024
ATP2A3 isoform 2 (UniProt Q93084) -0.05
ASAP1 isoform 2 (UniProt Q9ULH1) 0.005
ATP11C (UniProt Q8NB49) -0.003
ASF1A (UniProt Q9Y294) -0.038
ATM (UniProt Q13315) -0.023
ARMC8 (UniProt Q8IUR7) -0.028
ATG13 isoform 5 (UniProt O75143) -0.036
ATIC (UniProt P31939) 0.013
ARPP19 (UniProt P56211) -0.051
ATG4B isoform 2 (UniProt Q9Y4P1) -0.023
ASH2L (UniProt Q9UBL3) -0.05
ASS1 (UniProt P00966) 0.013
ARL13B (UniProt Q3SXY8) -0.102
ASAH1 isoform 2 (UniProt Q13510) 0.079
ATP6V1F isoform 2 (UniProt Q16864) 0.026
ATP5MF (UniProt P56134) -0.068
ATP5F1E (UniProt P56381) -0.01
ATP7A isoform 3 (UniProt Q04656) -0.009
